For at least one entry, the source does not settle the construct or the ends of the probe.
Target: T1, PpsR (Rubrivivax gelatinosus) (UniProt I0HUJ5)
T1 sequence: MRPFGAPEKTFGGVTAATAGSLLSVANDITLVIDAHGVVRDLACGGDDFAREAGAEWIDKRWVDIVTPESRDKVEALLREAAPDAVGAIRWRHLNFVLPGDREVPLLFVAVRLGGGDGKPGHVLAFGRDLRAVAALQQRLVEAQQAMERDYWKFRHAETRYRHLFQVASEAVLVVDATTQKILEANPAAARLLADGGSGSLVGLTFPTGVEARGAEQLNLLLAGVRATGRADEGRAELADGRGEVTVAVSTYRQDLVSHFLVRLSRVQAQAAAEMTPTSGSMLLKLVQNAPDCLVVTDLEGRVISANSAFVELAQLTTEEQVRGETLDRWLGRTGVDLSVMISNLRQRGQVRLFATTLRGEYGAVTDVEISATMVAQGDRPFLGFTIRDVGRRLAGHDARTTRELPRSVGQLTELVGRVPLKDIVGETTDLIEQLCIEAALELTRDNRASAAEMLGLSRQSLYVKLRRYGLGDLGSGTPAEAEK
Test: EMSA
Settings: EMSA: 5 nM probe, 25 mM Tris-HCl pH 8.0, 100 mM NaCl, 2 mM MgCl2, 6% glycerol, 50 ug/ml heparin, room temperature 30 min (5 mM DTT if reduced), recombinant protein, residues 1-484, protein details: SUMO (His) tag cleaved, tag-less, label: Cy5, probe letters rebuilt from the primers and the genome, part of a longer molecule; for half-maximal binding: EC50

| Sequence | binding result (H2O2-treated, similar to untreated) | half-maximal binding (oxidized (untreated)) [nM] | half-maximal binding (reduced, 5 mM DTT) [nM] |
| --- | --- | --- | --- |
| ACCAGTTTCCGTGCTCGACCCGCACGTGGGTTGGCTTCTGTAGCCCTCGGATTTCTCCCTACCGACATGTGTAACGCTACGCTGACAGGGTGGGGGCGTCAACATGTCGTGACACCCCCGCAACGCTGAATGTGTCGCGGCTCTGATCTATGACAAATTGCCGGGGTCCGGCGGGCCTCGGGAGCTCTG (double strand) [pucB promoter EMSA probe] | binds | 49.8 | 63.3 |
| CATCGGAGGGAACCAGGTGATCGGTTTGAGCAACTCCGCTACAGCGGACAACGCGGGCCTTGCCATGGGGCTGAATCTTGCGCTTGACAAAACAGAGCGTCAATTGTCGTTGACACAATCCCTGCCTTAGGACAAGCTCGACGGATGCTGATGAAGTCGGATGCCGCAGCCCCGCGCGCGGCCGGAAAGCAGGAT (double strand) [crtI promoter EMSA probe] | – | 80.5 | 86.5 |

From PMC4452267
